Results as given in PubChem BioAssay AID504842 (National Center for Advancing Translational Sciences (NCATS), 2011).
The whole screen tested about 330,000 compounds, of which about 100 (0.03%) were called active. Entries that show only a call come without a potency. The shares of active, inactive and inconclusive entries below differ from those in the screen. Calls follow the shape of the dose curve; as a rule, active = well fitted inhibition curve with a large enough effect; inconclusive = small, poorly fitted or top-dose-only effect; inactive = flat fitted curve, though single readings scatter. Potencies of inconclusive entries are doubtful fits and often do not repeat.

These compounds were tested on Chaperonin Mm-Cpn (Methanococcus maripaludis) (assay: Inhibitors of TCP-1 ring complex (TRiC) of Methanococcus maripaludis (MmCpn): qHTS). Conditions: purified Mm-Cpn ATPase, ADP Transcreener TR-FRET; series mostly up to 76.9 µM.
Summary of the method: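 Purified archaeal chaperonin (25 nM final) was preincubated with compound for 10 min at 37°C, then ATP (10 uM final) was added for 30 min at 37°C in Tris pH 7.4/KCl/MgCl2/DTT buffer. ADP was quantified by HTRF Transcreener TR-FRET.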
Also: nearly all actives have a fitted effect of over 80% in size.
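For potency in this document: enzyme at 25 nM with ATP substrate at 10 µM during the reaction.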
Potency is read from the fitted curve at half-maximal effect.

| SMILES | Potency |
| --- | --- |
| Cc1nc2oc3c(NCC4CCCO4)ncnc3c2c2c1COC(C)(C)C2 (stereo not given) | inactive |
| Clc1cccc(NCc2nnc(SCc3ccccc3)o2)c1 | inconclusive: 56.2 µM [inhibitor, single point] |
| CCN1C(=O)[C@H]2[C@@H](c3ccc(-c4cccc(Cl)c4)c(OC)c3)N3CCC[C@@]3(C(=O)OC)[C@H]2C1=O | inactive |
| COC(=O)c1ccc(OC)c(CN2CCCN(Cc3ccc(F)cc3)S2(=O)=O)c1 | inconclusive: 89.1 µM [inhibitor, single point] |
| CC(C)=CCN1CCN(Cc2cc(F)ccc2-n2nc(C)cc2C)CC1CCO (stereo not given) | inconclusive: 8.91 µM [inhibitor, single point] |
| Cc1nn(C)c(C(=O)NNC(=S)NCc2ccccc2)c1Cl | inconclusive: 56.2 µM [inhibitor, single point] |
| Cc1nnc(NC(=O)COc2ccc3c(C)cc(=O)oc3c2)s1 | inconclusive: 224 µM [inhibitor, partial curve, poor fit] |
| O=C(CCNC(=O)c1ccccc1Cl)Nc1nc(-c2ccc3ccccc3c2)cs1 | inconclusive: 89.1 µM [inhibitor, partial curve, poor fit] |
| CN(CC(=O)NCc1cccs1)S(=O)(=O)c1cccc2nsnc12 | inconclusive: 100 µM [inhibitor, single point] |
| O=C(OCC(=O)N1CCN(C(=O)c2ccco2)CC1)c1cc(-c2ccco2)nc2ccccc12 | inactive |
| O=S(=O)(c1cccc(-c2cn3cc(Cl)ccc3n2)c1)N1CCOCC1 | inactive |
| CCN(CC)C(=O)[C@H]1C[C@H](CC(=O)NCc2ccc(OC)c(OC)c2)C(=O)N2CCc3c([nH]c4ccc(Cl)cc34)[C@]12C | inactive |
| Cc1ccc(OCc2nnc(SCC(=O)c3cccs3)n2-c2ccccc2)cc1C | inactive |
| COc1ccc(N2C(=O)CCC(C(=O)N3CCC(C(N)=O)CC3)C2c2ccc(F)cc2)cc1 (stereo not given) | inactive |
| O=c1cc(-c2ccccc2)[nH]c2nc3ccccc3n12 | inactive |
| Cc1onc(-c2ccccc2Cl)c1C(=O)NCCn1c(C)cc2ccccc21 | inconclusive: 63.1 µM [inhibitor, single point] |
| O=C(COc1ccccc1)Nc1nnc(S(=O)(=O)N2CCCC2)s1 | inactive |
| Cc1nc(NCCc2ccccc2)sc1C(=O)O | inconclusive: 100 µM [inhibitor, partial curve, poor fit] |
| O=C(NCCCc1ccc(F)cc1)C1CCC(=O)N(CCN2CCOCC2)C1 (stereo not given) | inconclusive: 44.7 µM [inhibitor, partial curve, poor fit] |
| COc1ccc(C2(C(=O)Nc3nncs3)CCCC2)cc1 | inactive |

Reformatted: entries from further up.
SMILES | Potency
Cc1nc2oc3c(NCC4CCCO4)ncnc3c2c2c1COC(C)(C)C2 (stereo not given) | inactive
Clc1cccc(NCc2nnc(SCc3ccccc3)o2)c1 | inconclusive: 56.2 µM [inhibitor, single point]
